From patent publication US20020115688A1, “Screen for glutamate reuptake inhibitors, stimulators, and modulators” (priority 2000, published 2002)
Some entries share one result that the patent states for a list of compounds. At least one compound was matched to its structure with a doubt left.

System: T1, glutamate transporters (GLAST and GLT1)
T1 construct: Bmax; other: rat brain membrane homogenates; other: 20 nM [3H]-4MG, 15 minutes at 4° C; KD; association t½
Assay: [3H]-4MG binding to rat brain membrane homogenates
Details: compounds specific for GLT1 (EAAT2)
Procedure: Rat brain tissue, either freshly dissected or stored frozed at −20° C. is homogenized in HEPES buffer containing Na^+(5 mM HEPES, 96 mM NaCl, 1.8 mM CaCl2, 1 mM MgCl2 (pH 7.5 at 25° C.)), and membranes are washed twice in the same buffer using standard methods for subcellular fractionation and the preparation of brain membranes. Brain tissue is weighed and homogenized in 15 ml of assay buffer using a Polytron tissue homogenizer (setting 4, 10-15 seconds). […] The homogenate is centrifuged again (as above) and the pellet re-suspended in 20 to 25 volumes of buffer. Membrane homogenates make up 20% of final assay volume. Binding assays are also performed in the above buffer.
The range of concentrations of the receptor compound (for example, 10 nM-1 mM) is varied dependent on whether all or only a trace of the receptor compound is labeled. […] Binding is determined by any technique suitable for the label used. […]
Forebrain tissue from female Sprague Dawley rats was homogenised in HEPES buffer containing Na^+, and membranes were washed twice in the same buffer. […] Binding was determined by scintillation spectrometry. […] Data were analyzed using computer-assisted curve fitting. Values are expressed as mean of at least triplicate determinations and multiple experiments. […]

Structure (SMILES) | displacement of [3H]-4MG binding
CC(C)[C@H]1CN[C@H](C(=O)O)[C@H]1CC(=O)O [DHK, L-Dihydrokainate] | 35-50%
C=C(C)[C@H]1CN[C@H](C(=O)O)[C@H]1CC(=O)O [KA, kainate] | 35-50%
